Measured values taken from PubChem BioAssay AID1347075 (National Center for Advancing Translational Sciences (NCATS), 2019).
About 5,500 (1.4%) of roughly 400,000 compounds were called active. Inconclusive means that the source gave no clear call. Such entries were picked first, then a sample of the others. Calls follow the shape of the dose curve; as a rule, active = well fitted cell-killing curve with a large enough effect; inconclusive = small, poorly fitted or top-dose-only effect, or effect the other way; inactive = flat fitted curve, though single readings scatter. Potencies of inconclusive entries are doubtful fits and often do not repeat.

Test: qHTS assay for MDR1-selective chemotherapeutics: Primary screen using the parental adenocarcinoma cell KB-3-1; also: nearly all actives have a fitted effect of over 60% in size
Settings: KB-3-1 viability, CellTiter-Glo ATP luminescence, 72 h; activity change, negative = cytotoxic: at 46.1 µM (top of the series)
Summary of the method: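 Using CellTiter-Glo luminescence, growth of non-resistant KB-3-1 adenocarcinoma cells is assessed 72 h after pin-tool compound addition at 37 °C. Normalized responses across the concentration series yield fitted curves.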
% is scaled to controls: 0 for no effect and ±100 for the full control effect; potency is read from the fitted curve at half-maximal effect.

SMILES | Potency | activity change, negative = cytotoxic
Cc1ccc(C2(CCNCc3ccc(N(C)C)cc3)CCOC(C(C)C)C2)cc1 (centres undefined) | inconclusive: 23.1 µM [cytotoxic, single point] | 
Cc1ccc(-c2nc(CSCC(=O)NC3CCN(Cc4ccccc4)CC3)c(C)o2)cc1 | inconclusive: 23.1 µM [cytotoxic, partial curve] | 
Cc1c(NS(=O)(=O)c2ccc(N(C)C3CCCCC3)c([N+](=O)[O-])c2)c(=O)n(-c2ccccc2)n1C | inconclusive: 25.9 µM [rising, partial curve, poor fit] | 
Cc1cccc(C)c1OCC(=O)Nc1cccc(-c2nnc(-c3ccccc3)o2)c1 | inconclusive: 29.1 µM [cytotoxic, single point] | 
COCc1cc(CN2CCCC(C(=O)c3cccc(C(F)(F)F)c3)C2)ccc1OC (centres undefined) |  | inactive: -2.64%
COc1ccc(C(=O)/C=C/c2cccc(OCc3ccccc3)c2)cc1CSCC(=O)O | inconclusive: 23.1 µM [cytotoxic, partial curve, poor fit] | 
O=C(CS(=O)(=O)Cc1ccccc1)Nc1ccc(Cl)cn1 |  | inconclusive: 0.264%
CC(C)[C@H](NC(=O)N1CC(=O)Nc2ccccc21)C(=O)N[C@@H](Cc1c[nH]c2ccccc12)C(=O)O |  | inconclusive: -8.58%
COc1ccccc1NC(=O)N(Cc1ccco1)Cc1cc2cccc(C)c2[nH]c1=O | inconclusive: 25.9 µM [cytotoxic, single point] | 
Cn1nccc1C(=O)N/N=C/c1c(O)ccc2ccccc12 | active: 7.31 µM | 
COCCn1c(C)cc(O)c(C(c2ccccc2)N2CCN(CCO)CC2)c1=O (centres undefined) |  | inactive: -18.8%
Cc1ccc(NC(=O)CSc2nc3ccccc3nc2N2CCCC2)cc1 | active: 18.4 µM | 
COc1cc(C2c3c(n[nH]c3C)C(=O)N2c2ccc(C)cc2)ccc1O (centres undefined) | inconclusive: 20.6 µM [cytotoxic, single point] | 
O=C1c2oc3ccc(F)cc3c(=O)c2C(c2ccccc2)N1CC1CCCO1 (centres undefined) |  | inactive: 8.63%
CC1(C)C(=O)Nc2ccccc2N1C(=O)COC(=O)c1ccc(NC(N)=O)cc1 |  | inactive: 14.3%
COc1ccc(Cc2nnc(NC(=O)c3ccc(F)cc3)s2)cc1OC |  | inactive: 0%
Cc1ccc2c(n1)sc1c(=O)n(-c3cccc(C(F)(F)F)c3)nnc12 |  | inactive: -10.1%
Cc1ccc(NC(=O)C(SCC(=O)O)c2ccccc2)cc1C (centres undefined) |  | inactive: 0.722%
OCC[C@@H]1C[C@H](O)[C@@H](O)[C@@]2(CCCCO2)O1 |  | inactive: 14.6%
COc1ccc(C(=O)NCc2nnc(SCC(=O)N3CCc4ccccc43)n2CCc2ccccc2)cc1 |  | inactive: 0%
C#CCn1c(S(=O)(=O)Cc2ccc(C)cc2)nc(-c2ccccc2)c1-c1ccccc1 | active: 6.51 µM | 
O=C(CSc1nc2ccc(Cl)cc2[nH]1)N1CCN(C(=O)c2ccco2)CC1 | inconclusive: 10.3 µM [rising, partial curve, poor fit] | 

Retrieved one by one from the entries so far:
SMILES | Potency | activity change, negative = cytotoxic
CC(C)[C@H](NC(=O)N1CC(=O)Nc2ccccc21)C(=O)N[C@@H](Cc1c[nH]c2ccccc12)C(=O)O |  | inconclusive: -8.58%
Cn1nccc1C(=O)N/N=C/c1c(O)ccc2ccccc12 | active: 7.31 µM | 

Next part.

SMILES | Potency | activity change, negative = cytotoxic
CCCn1c(SCC(=O)N2c3ccccc3CCc3ccccc32)nc2c1c(=O)n(C)c(=O)n2C |  | inactive: 8.1%
CN(CCCNC(=O)c1ccc(/C=N/O)nc1)CCCN(C)Cc1ccccc1 | inconclusive: 20.6 µM [cytotoxic, partial curve, poor fit] | 
Cc1noc(C)c1CSc1nc2[nH]ncc2c(=O)n1-c1ccccc1 | inconclusive: 0.291 µM [cytotoxic, full curve, poor fit] | 
CN(C)c1ccc(/C=N/OC(=O)Nc2ccccc2Cl)cc1 | active: 23.1 µM | 
Oc1c(C(Nc2ccccn2)c2ccccc2)cc(Cl)c2cccnc12 (centres undefined) | inconclusive: 16.4 µM [cytotoxic, single point] | 
Cc1ccc(N=Nc2ccc3ccccc3c2O)cc1 | inconclusive: 9.2 µM [cytotoxic, partial curve, poor fit] | 
COc1ccccc1NC(=O)CSC1=Nc2ccccc2C2=NC(CC(=O)NCCc3ccccc3)C(=O)N12 (centres undefined) |  | inactive: 2.65%
COc1ccc(OC)c(NC2=NC3(CCCC3)N=C(N)N2)c1 | inconclusive: 29.1 µM [cytotoxic, single point] | 
O=S(=O)(c1ccccc1)N1CCC(O)(CSc2ccc(F)cc2)CC1 | inconclusive: 13 µM [cytotoxic, partial curve, poor fit] | 
Cc1cccc(OCc2nnc(NC(=O)Cc3cccs3)s2)c1 |  | inactive: -5.64%
N=C1C(c2ccccc2)=C(O)CN1CCO |  | inactive: -47.3%
CC(Sc1nnc(-c2ccccc2)c(-c2ccccc2)n1)C(=O)N1CCc2ccccc21 (centres undefined) | inconclusive: 29.1 µM [cytotoxic, single point] | 
CC(C)(C)c1ccc(OCCCCCCN2CCNCC2)cc1 | inconclusive: 18.4 µM [cytotoxic, single point] | 
O=C(ONC1=NCCCCC1)c1cccc([N+](=O)[O-])c1 | inconclusive: 29.1 µM [cytotoxic, single point] | 
Cc1ccc(S(=O)(=O)NCc2ccncc2)c(C)c1C | inconclusive: 0.92 µM [cytotoxic, full curve, poor fit] | 
COc1ccccc1CNC(=O)C1CC(c2ccccc2F)=NO1 (centres undefined) | inconclusive: 29.1 µM [cytotoxic, single point] | 
COc1ccccc1CNC(=O)COC(=O)C1CCN(S(=O)(=O)c2ccc(C)c(C)c2)CC1 | inconclusive: 20.6 µM [cytotoxic, single point] | 
COc1ccc(NS(=O)(=O)c2ccc3c(c2)NC(=O)C(C)S3)cc1 (centres undefined) | inconclusive: 7.31 µM [cytotoxic, partial curve, poor fit] | 
Cc1cc(Cl)ccc1OCC(=O)NN1C(=O)C2C3C=CC(C3)C2C1=O (centres undefined) | inconclusive: 3.66 µM [rising, single point] | 
CC1=C(C(=O)N2CCOCC2)CC(CC(=O)NC2CCCCC2)C(=O)N1CCCN1CCCC1=O (centres undefined) |  | inactive: -10.1%
CC(=O)c1c(C)[nH]c(C(=O)CN2CCN(S(=O)(=O)c3ccc(C(C)C)cc3)CC2)c1C | inconclusive: 13 µM [cytotoxic, partial curve, poor fit] | 
CCc1nc2c(OCc3ccc(Cl)cc3Cl)cccn2c1N(C=O)Cc1ccc(OC)cc1 | inconclusive: 29.1 µM [cytotoxic, single point] | 
